Results are given in words; binding and its absence hold for the method and conditions named. In cells and extracts the contact can be indirect. Some binding calls cover weakened binding; strength is not graded here.

The chains behind the UniProt entries cited, without tags or fusion partners.
UniProt O15409: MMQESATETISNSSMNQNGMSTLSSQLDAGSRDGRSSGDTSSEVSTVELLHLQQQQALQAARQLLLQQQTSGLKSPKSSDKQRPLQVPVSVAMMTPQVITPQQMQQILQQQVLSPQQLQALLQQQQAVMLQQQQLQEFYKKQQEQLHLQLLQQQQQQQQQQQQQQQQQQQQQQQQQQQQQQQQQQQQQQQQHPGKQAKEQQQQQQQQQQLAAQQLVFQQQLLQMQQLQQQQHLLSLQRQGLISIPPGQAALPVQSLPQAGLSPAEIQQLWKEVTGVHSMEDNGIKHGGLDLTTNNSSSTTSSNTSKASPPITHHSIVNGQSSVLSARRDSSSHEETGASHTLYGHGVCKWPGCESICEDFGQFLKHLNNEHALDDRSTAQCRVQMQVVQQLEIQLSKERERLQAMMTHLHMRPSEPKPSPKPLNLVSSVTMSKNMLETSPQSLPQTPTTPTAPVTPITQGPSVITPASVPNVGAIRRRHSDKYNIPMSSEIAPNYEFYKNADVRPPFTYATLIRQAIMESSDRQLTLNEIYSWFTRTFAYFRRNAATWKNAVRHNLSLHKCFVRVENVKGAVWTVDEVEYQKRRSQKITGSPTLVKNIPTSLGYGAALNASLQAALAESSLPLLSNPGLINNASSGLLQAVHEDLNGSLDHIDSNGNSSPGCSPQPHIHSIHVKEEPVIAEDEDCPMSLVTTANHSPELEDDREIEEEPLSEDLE

Here are results for one substance from PMC5288160.

The assay addresses T1, FOXP1 (human (endogenous in RIVA and SU-DHL-2)) (UniProt Q9H334).
T1 sequence: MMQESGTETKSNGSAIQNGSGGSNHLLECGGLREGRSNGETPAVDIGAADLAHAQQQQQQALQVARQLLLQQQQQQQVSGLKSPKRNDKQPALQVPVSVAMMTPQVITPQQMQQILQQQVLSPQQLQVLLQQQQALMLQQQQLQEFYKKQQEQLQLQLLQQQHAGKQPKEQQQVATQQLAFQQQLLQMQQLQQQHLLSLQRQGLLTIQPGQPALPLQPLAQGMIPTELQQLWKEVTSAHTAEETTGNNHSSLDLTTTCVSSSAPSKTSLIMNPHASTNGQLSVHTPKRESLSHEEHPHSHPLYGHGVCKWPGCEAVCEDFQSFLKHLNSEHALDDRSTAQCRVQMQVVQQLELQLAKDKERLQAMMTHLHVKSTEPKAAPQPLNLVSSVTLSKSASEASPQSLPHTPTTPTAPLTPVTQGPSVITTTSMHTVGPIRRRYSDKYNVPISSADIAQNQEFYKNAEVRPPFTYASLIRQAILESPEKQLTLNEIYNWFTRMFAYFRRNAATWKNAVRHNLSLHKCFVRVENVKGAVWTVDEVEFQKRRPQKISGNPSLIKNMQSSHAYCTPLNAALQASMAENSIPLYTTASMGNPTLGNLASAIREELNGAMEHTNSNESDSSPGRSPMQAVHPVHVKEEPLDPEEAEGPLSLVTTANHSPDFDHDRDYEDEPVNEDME
Kind of assay: co-IP; endogenous FOXP1 immunoprecipitated with anti-FOXP1 JC12 from RIVA and SU-DHL-2 cell lysates (100 ug, RIPA buffer), 4 °C, Protein G MicroBeads, washes with RIPA and low-salt buffer; FOXP2 detected by Western blot with FOXP2-73A/8; control antibodies IgG2a isotype and 130/B4.

For FOXP2 (from UniProt O15409 1-715), the binding entry is reported as “binds”.
